Data from publication PMC8484550.
No constants are given. Whether binding was seen depends on the method and setting. In cells and extracts the contact can be indirect. Some entries that bind do so weakly or less than the wild type. Tags and fused reporters may be left off the sequences shown.

Chains of the proteins cited; added tags and fusions are not shown.
UniProt O08573: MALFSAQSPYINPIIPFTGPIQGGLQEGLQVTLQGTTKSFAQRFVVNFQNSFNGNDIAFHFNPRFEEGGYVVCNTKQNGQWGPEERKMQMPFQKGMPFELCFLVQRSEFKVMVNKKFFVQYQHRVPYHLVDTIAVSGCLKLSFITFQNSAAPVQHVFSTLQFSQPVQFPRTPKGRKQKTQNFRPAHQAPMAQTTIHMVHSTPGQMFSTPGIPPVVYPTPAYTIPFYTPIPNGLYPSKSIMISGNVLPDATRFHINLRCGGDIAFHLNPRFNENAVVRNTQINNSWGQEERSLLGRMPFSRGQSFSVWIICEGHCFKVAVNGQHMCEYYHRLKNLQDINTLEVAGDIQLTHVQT

Target: T1, CD146-Flag (UniProt Q8R2Y2)
T1 sequence: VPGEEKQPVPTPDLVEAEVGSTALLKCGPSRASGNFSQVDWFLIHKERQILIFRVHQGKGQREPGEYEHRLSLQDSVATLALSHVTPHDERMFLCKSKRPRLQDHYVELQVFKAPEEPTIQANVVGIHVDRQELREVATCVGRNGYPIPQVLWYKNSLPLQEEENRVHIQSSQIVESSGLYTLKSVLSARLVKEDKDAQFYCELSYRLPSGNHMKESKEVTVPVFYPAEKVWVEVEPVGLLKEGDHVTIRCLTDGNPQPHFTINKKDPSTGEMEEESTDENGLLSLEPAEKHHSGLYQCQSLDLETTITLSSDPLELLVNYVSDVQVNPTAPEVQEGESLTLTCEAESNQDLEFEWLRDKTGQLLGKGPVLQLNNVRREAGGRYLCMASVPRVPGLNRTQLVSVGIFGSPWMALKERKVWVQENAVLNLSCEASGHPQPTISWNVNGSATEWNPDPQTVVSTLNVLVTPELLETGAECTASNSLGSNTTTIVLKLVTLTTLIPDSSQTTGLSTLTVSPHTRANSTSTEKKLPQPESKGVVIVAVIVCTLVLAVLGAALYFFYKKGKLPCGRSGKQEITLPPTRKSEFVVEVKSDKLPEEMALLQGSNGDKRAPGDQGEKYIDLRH
Assay: co-IP; immunoprecipitation from bEnd.3 and T cells; Galectin-9 detected by Western blotting

## Galectin-9 (from UniProt O08573 1-353)
  binding: binds
